Test results as given in patent EP1431306A1, “A mechanism for hiv-1 entry into host cells and peptides inhibiting this mechanism” (priority 2002, dated 2004).
At least one peptide structure holds a part that was inferred or is arguable (an end, a ring closure or a residue). No end group written: not given here.

Key:
HIV-1 Ba-L = assay: Infection of PHA-stimulated PBMCs with wild type HIV-1 Ba-L (early viral transcripts by PCR); format: cell-based; conditions: 2 h at 37 °C, compared to 100 µM control peptide, SEQ ID NO.4 and 44: 100-50-10 µM, SEQ ID NO. 127: 1 µM-100-10 nM
Protocol: This example is illustrated in Fig. 12. […] 4 (CSFINT), 44 (RDKVKK) and the complete gp120 region SEQ ID NO.127 (CSFNITTEIRDKVKK), where the entry experiment is performed with two strains of HIV-1 on peripheral blood cells (PBMCs) derived from healthy donors. In particular, strain III B uses CXCR4 as a co-receptor (X4) and Ba-L uses CCR5 (R5).
In the graphs the percent inhibition of infection due to the peptides is shown, as compared to infection in the presence of 100 µM of a control peptide. PHA-stimulated PBMCs have been incubated with the peptides and immediately infected for 2 h at 37 °C. This incubation time is sufficient to evaluate virus entry, by detecting the presence of early viral transcripts into the cytoplasm of infected cells. The peptide concentrations are as follows: SEQ ID NO.4 and 44: 100-50-10 µM; SEQ ID NO. 127: 1 µM-100-10 nM. In Fig. 12A is represented the effect of the peptides on the basal infection of both viral strains, in Fig. 12B the effect of the peptides on the infection following incubation with rTAT 7 nM. A peptide-dependent inhibition of the basal infection by both HIV-1 strains is present already in the basal infection, reflecting the presence of TAT in the viral supernatants. […]
Infection with wild type HIV-1. […] Amplified DNA was analyzed by Southern blot hybridization with a ^32P-labeled probe, and quantified by densitometry. […]

TAT-/gp120-LV = assay: Entry of TAT-/gp120-LV into C8166 cells after co-culture with U937/PINCO or U937/TAT cells; format: cell-based, HIV-1; conditions: 100 µM of the peptides; after 4 h co-culture of C8166 cells with U937/TAT cells
TAT+/gp120-LV [1] = assay: Entry of TAT+/gp120-LV into C8166 cells after co-culture with U937/PINCO or U937/TAT cells; format: cell-based, HIV-1; conditions: for reversion of TAT+/gp120-LV entry: 100 µM of the peptides, 4 h co-culture of C8166 cells with U937/PINCO or U937/TAT cells (effect potentiated by co-culture with U937/TAT)
Description: This example is illustrated in Fig. 10. […] Said vector, as described in Example II, allows the expression of TAT, so that TAT is already present, as detailed described before, in the vector preparation and its amount is enhanced after the co-culture with U937/TAT cells. […] In particular, peptides with SEQ ID NO. 40 (RDKKKK), 42 (RDKKKV), 45 (KDKKEK), 47 (RDKKQK), 49 (RDKQQK), 50 (RDKVQK) revert the entry of more than 15%.
This example is illustrated in Fig. 11. […] 4 (CSFINT) and 44 (RDKVKK), where the entry experiment is performed with TAT+/gp120-LV, following 4 h co-culture of C8166 cells with U937/TAT cells. These two peptides are the ones derived from the Phage Display screening, and is here evaluated their ability of inhibit vector entry at concentrations lower than 100 µM (the concentration used in all the examples previously described). To verify if the integrity of the peptides is crucial for their activity, we have incubated the cells with said peptides in the presence of different protease inhibitors (aprotinin or a mix made by aprotinin, leupeptin, bestatin, pepstatin-A, AEBSF [4-(2-Aminoethyl) Benzenesulfonyl Fluoride Hydrochloride] and E-64 [(N-(N-(L-3-Transcarboxirane-2-Carbonyl)-L-Leucyl)-Agmatine)]). […] This example illustrates a way by which the power of said peptides can be improved.
Co-cultures and incubations with rTAT. C8166 cells were co-cultured with U937/PINCO or U937/TAT cells in 6-well transwells for 4 h at 37°C, or incubated in culture medium containing rTAT (provided by The Centralized facility for AIDS Reagents, National Institute for Biological Standards and Controls, and the UK Medical Research Council, donor Immunodiagnostic) for 15 min at 37°C. After treatment, cells were extensively washed in PBS, and subjected to immunostaining or transduction with lentiviral vectors. PBMCs were incubated with 7 nM recombinant TAT86 III B for 15 min at 37°C, extensively washed and subjected to infection with HIV-1.
Transduction with HIV-1-derived lentivirus. Vector stocks were prepared by transient co-transfection of 293T cells with the following combinations of plasmids: pRRL.hPGK.GFP.SIN-18 + pCMV.DR8.2 + pMD.G (Naldini et al. (1996), supra) (VSV-G-LV) or pEnvHXB (Huang et al., J. Virol. 72 (1998), 8952-8960) (TAT+/gp120-LV); pRRL.hPGK.GFP.SIN-18 + pCMV.DR8.74 + pRSV-Rev ((Dull et al. (1998), supra) + pEnvHXB (TAT^-/gp120-LV). Vector concentration was determined by HIV-1 p24 Core profile ELISA following the manufacturer's instructions. The entry experiments were conducted on 10^5 cells per well of a 48-well plate in the presence of 8 µg/ml polybrene. The number of GFP-positive cells was analysed by FACS.

TAT+/gp120-LV [2] = assay: Basal entry of TAT+/gp120-LV into C8166 cells (GFP-positive cells by FACS); format: cell-based, HIV-1; conditions: 100 µM of the peptides, GFP-positive cells after 72 h

Substance	reversion of TAT+/gp120-LV entry (TAT+/gp120-LV [1])	reversion of the basal infection (entry of TAT+/gp120-LV) (TAT+/gp120-LV [2])	further results
CSFNITTEIRDKVKK [SEQ ID NO. 127, CSFNITTEIRDKVKK]	–	–	inhibition of the basal infection (HIV-1 Ba-L): about 40%
DRKKKV [SEQ ID NO. 43, DRKKKV]	–	–	reversion of TAT-/gp120-LV entry (TAT-/gp120-LV): more than 15%
KDKKEK [SEQ ID NO. 45, KDKKEK]	more than 15%	–	reversion of TAT-/gp120-LV entry (TAT-/gp120-LV): more than 15%
RDKKKK [SEQ ID NO. 40, RDKKKK]	more than 15%	more than 15%	reversion of TAT-/gp120-LV entry (TAT-/gp120-LV): more than 15%
RDKKKQ [SEQ ID NO. 41, RDKKKQ]	–	more than 15%	–
RDKKKV [SEQ ID NO. 42, RDKKKV]	more than 15%	more than 15%	–
RDKQQK [SEQ ID NO. 49, RDKQQK]	more than 15%	–	–
RDKTQK [SEQ ID NO. 52, RDKTQK]	–	more than 15%	–
RDKVKK [SEQ ID NO. 44, RDKVKK]	–	–	blocking of virus entry (TAT+/gp120-LV) (TAT+/gp120-LV [1]; concentration lower than 100 µM, no protease inhibitors, 4 h co-culture with U937/TAT cells): inefficient in blocking virus entry; concentration at which the inhibitory effect is still visible (TAT+/gp120-LV [1]; in the presence of protease inhibitors (aprotinin or mix), 4 h co-culture with U937/TAT cells): 5 µM; inhibition of the basal infection (HIV-1 Ba-L): about 40%
RDKVQK [SEQ ID NO. 50, RDKVQK]	more than 15%	–	–
RNKRKQ [SEQ ID NO. 51, RNKRKQ]	–	more than 15%	–
